Article PMC4919504
These are yes or no findings as the source states them, for the method shown. Binding seen in cells or lysates may run through a third protein. Here binding means that the protein was enriched with, or labelled near, the bait; the list need not be complete. For part of these data: No binding means not detected with the bait.

Sequences of proteins named here, by UniProt entry; tags and fusion partners are left off. A change or cut given only in a name is not applied to a line headed by its entry. Residues count along the entry.
UniProt Q14160: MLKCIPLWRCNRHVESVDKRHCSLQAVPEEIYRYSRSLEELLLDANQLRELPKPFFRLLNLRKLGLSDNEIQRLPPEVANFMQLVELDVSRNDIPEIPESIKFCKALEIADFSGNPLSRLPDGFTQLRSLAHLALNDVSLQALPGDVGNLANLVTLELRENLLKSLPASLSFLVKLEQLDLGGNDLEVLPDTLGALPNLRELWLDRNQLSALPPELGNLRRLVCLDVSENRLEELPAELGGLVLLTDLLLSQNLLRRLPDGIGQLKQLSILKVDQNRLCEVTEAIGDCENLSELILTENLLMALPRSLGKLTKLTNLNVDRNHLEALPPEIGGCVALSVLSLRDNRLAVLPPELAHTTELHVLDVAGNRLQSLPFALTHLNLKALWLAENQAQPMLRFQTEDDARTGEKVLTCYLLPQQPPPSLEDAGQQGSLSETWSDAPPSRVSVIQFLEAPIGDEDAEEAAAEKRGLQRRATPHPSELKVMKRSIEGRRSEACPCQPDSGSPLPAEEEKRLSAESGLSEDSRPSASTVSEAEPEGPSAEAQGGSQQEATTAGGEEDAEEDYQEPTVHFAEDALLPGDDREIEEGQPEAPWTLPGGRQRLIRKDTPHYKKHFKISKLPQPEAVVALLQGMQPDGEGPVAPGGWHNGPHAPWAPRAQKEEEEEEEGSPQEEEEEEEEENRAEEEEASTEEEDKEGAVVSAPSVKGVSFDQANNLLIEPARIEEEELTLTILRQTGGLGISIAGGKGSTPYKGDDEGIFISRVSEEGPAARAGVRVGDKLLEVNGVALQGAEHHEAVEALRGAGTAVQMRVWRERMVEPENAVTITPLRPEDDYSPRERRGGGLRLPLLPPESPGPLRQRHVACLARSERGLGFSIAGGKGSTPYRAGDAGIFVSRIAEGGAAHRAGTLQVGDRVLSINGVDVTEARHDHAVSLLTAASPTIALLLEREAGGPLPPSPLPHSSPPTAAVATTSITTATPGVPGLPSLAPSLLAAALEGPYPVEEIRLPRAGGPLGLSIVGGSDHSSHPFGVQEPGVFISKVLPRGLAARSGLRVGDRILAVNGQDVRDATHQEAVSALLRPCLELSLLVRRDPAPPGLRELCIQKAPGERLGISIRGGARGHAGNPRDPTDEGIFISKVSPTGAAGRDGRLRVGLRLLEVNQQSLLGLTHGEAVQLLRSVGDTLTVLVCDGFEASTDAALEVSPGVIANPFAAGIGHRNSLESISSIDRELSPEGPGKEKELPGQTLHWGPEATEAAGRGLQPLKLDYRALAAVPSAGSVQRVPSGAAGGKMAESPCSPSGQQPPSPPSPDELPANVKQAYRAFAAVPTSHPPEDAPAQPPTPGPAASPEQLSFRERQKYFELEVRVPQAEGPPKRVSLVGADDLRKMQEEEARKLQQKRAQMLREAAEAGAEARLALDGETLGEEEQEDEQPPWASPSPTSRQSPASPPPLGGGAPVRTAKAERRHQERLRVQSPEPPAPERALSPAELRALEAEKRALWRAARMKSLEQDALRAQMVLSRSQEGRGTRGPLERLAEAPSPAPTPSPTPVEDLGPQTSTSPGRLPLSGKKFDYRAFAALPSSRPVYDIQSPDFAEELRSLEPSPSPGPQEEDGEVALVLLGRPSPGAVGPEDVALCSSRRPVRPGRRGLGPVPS
truncated GFP-Scribble lacking exons 30-37 (codon 1293 changed to stop): residues 1-1292 of Q14160
UniProt Q9Y2X7: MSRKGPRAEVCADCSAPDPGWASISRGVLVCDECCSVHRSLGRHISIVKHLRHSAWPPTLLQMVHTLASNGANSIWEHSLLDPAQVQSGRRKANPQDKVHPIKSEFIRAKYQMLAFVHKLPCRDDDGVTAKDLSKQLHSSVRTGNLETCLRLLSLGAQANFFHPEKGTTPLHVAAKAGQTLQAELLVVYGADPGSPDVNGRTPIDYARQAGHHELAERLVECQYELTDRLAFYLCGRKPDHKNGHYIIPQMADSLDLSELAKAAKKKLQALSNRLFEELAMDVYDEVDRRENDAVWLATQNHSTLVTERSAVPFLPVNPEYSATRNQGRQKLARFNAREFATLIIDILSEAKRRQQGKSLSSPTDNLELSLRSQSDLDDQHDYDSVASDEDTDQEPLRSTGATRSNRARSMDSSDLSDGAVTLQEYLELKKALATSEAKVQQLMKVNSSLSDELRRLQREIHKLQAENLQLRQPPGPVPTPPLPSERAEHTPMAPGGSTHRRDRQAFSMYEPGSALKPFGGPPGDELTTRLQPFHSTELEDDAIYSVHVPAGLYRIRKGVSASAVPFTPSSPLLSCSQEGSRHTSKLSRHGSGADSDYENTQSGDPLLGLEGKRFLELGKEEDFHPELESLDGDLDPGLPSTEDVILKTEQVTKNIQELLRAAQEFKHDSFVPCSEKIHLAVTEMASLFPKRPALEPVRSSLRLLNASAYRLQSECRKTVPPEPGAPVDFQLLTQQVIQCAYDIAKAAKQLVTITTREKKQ
UniProt Q14980: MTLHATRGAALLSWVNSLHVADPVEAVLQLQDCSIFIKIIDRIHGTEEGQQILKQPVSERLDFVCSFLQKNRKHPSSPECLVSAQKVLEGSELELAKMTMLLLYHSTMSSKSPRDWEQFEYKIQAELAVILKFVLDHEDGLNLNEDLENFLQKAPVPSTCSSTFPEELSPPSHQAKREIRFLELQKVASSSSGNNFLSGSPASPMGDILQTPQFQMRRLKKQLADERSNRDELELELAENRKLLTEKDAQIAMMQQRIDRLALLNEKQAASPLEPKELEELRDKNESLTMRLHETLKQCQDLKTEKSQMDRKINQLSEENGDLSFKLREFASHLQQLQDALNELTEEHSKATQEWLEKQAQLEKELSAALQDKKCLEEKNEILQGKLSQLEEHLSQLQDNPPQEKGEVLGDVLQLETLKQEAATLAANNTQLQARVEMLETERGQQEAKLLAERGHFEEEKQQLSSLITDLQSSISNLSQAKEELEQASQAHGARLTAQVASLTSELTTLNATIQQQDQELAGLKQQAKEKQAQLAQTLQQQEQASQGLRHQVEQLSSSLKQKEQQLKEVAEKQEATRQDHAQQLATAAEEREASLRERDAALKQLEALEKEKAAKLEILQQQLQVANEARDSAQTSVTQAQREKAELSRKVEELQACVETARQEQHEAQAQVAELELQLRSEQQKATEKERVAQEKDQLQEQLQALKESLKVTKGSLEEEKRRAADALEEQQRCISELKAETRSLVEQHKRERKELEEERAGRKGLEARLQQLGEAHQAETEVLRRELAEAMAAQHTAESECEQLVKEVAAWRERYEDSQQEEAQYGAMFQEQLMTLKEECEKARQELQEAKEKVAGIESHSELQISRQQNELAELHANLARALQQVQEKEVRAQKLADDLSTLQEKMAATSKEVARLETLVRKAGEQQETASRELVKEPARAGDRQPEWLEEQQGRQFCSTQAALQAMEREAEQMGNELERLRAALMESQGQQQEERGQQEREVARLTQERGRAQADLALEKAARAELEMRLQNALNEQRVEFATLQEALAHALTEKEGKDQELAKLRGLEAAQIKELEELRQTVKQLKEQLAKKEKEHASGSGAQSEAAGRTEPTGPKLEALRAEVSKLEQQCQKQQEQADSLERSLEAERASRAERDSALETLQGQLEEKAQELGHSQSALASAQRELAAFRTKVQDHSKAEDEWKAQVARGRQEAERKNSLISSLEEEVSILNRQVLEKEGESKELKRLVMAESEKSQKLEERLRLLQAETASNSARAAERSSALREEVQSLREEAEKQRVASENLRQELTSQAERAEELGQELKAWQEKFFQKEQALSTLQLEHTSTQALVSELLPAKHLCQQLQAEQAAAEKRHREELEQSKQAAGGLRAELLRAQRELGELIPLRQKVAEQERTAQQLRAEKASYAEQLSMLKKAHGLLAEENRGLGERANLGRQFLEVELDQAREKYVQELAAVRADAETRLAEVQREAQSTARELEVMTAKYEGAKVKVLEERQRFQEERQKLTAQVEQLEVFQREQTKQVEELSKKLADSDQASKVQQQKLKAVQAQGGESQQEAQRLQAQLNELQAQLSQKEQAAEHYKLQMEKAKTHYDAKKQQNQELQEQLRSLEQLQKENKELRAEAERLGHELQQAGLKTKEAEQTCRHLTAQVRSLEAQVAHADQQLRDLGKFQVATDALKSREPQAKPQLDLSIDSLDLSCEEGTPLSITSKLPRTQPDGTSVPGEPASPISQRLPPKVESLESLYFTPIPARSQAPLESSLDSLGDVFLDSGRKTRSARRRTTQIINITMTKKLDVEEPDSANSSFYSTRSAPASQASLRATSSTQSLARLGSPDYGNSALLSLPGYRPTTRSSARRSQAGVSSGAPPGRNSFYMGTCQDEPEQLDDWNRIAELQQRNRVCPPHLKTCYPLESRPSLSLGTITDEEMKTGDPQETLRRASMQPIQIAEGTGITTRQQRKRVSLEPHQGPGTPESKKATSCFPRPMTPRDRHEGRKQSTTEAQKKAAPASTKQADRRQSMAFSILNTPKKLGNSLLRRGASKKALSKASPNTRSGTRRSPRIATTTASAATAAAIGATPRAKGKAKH
UniProt P08670: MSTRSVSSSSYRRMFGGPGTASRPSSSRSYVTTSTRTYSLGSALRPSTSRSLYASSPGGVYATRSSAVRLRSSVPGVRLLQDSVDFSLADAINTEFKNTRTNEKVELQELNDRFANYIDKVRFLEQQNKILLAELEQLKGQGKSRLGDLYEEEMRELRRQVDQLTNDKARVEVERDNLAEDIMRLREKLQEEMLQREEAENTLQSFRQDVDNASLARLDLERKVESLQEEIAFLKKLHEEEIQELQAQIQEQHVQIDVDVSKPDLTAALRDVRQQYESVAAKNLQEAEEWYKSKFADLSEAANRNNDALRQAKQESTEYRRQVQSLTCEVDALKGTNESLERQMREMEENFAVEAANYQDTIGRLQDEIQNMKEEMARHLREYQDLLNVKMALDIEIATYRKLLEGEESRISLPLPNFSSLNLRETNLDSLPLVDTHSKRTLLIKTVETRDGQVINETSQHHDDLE
UniProt Q14155: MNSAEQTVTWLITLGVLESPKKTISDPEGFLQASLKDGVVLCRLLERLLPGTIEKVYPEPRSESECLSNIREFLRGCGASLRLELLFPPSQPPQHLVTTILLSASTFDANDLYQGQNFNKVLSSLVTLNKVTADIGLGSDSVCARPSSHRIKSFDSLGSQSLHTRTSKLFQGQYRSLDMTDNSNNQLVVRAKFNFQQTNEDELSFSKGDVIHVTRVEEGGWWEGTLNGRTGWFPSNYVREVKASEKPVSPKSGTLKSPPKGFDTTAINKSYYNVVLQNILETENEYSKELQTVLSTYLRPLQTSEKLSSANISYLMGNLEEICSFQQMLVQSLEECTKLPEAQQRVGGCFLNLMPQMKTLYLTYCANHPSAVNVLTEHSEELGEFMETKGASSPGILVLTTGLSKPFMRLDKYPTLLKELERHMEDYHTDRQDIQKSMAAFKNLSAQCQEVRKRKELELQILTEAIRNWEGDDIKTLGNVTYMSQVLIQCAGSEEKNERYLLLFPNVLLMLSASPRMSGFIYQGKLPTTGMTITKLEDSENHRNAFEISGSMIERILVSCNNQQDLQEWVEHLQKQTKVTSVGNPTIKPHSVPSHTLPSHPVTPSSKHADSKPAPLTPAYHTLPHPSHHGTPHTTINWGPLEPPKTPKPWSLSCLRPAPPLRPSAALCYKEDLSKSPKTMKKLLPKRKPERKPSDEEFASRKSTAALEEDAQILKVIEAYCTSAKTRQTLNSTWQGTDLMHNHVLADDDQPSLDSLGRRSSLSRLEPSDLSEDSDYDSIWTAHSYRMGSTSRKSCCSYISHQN

Tests used:
[1] = target: GFP-Scribble (wild type) (human) (UniProt Q14160); test: affinity purification with mass spectrometry; GFP-Scribble (wild type or mutant) precipitated with anti-GFP antibody (B-2) and protein A/G magnetic beads from lysates of transfected HEK293T cells (1% Igepal, 50 mM Tris-HCl pH 6.8, RT); on-bead trypsin digest, LC-MS/MS, spectral counts
[2] = target: GFP-Scribble S1448A (human) (UniProt Q14160); test: as above
[3] = target: GFP-Scribble S1448D (human) (UniProt Q14160); test: as above
[4] = target: truncated GFP-Scribble lacking exons 30-37 (codon 1293 changed to stop) (human) (UniProt Q14160); test: as above
[5] = target: endogenous Scribble (human (endogenous in HEK293)) (UniProt Q14160); test: affinity purification with mass spectrometry; endogenous Scribble precipitated (anti-Scribble C-6) from HEK293 cells arrested by nocodazole; Numa1 quantified by targeted mass spectrometry (SRM of …)
[6] = target: endogenous Scribble (human (endogenous in HEK293)) (UniProt Q14160); test: condition: only cells in other phases of the cell cycle (not arrested by nocodazole); affinity purification with mass spectrometry; endogenous Scribble precipitated (anti-Scribble C-6) from cell cycle-synchronized HEK293 cells in phases other than the nocodazole arrest; Numa1 quantified by targeted mass spectrometry

binding [1]	binding [2]	binding [3]	binding [4]	binding [5]	binding [6]	Substance
binds	binds	binds	binds			Git1 (from UniProt Q9Y2X7 1-761)
binds		binds		binds	no binding	nuclear mitotic apparatus protein Numa1 (from UniProt Q14980 1-2115)
binds	binds	binds				Vimentin (from UniProt P08670 1-466)
binds	binds	binds	binds			Beta-pix (from UniProt Q14155 1-803)
